Data on nine targets can be found in the supplement of paper PMC12819154, “High-throughput peptide-centric local stability assay extends protein–ligand identification to membrane proteins, tissues and bacteria” (Nature Structural & Molecular Biology, 2025).

The chains behind the UniProt entries cited, without tags or fusion partners. Where a name states a change or a piece, a line headed by the entry shows the natural chain unless it says otherwise.
UniProt Q9NZC9: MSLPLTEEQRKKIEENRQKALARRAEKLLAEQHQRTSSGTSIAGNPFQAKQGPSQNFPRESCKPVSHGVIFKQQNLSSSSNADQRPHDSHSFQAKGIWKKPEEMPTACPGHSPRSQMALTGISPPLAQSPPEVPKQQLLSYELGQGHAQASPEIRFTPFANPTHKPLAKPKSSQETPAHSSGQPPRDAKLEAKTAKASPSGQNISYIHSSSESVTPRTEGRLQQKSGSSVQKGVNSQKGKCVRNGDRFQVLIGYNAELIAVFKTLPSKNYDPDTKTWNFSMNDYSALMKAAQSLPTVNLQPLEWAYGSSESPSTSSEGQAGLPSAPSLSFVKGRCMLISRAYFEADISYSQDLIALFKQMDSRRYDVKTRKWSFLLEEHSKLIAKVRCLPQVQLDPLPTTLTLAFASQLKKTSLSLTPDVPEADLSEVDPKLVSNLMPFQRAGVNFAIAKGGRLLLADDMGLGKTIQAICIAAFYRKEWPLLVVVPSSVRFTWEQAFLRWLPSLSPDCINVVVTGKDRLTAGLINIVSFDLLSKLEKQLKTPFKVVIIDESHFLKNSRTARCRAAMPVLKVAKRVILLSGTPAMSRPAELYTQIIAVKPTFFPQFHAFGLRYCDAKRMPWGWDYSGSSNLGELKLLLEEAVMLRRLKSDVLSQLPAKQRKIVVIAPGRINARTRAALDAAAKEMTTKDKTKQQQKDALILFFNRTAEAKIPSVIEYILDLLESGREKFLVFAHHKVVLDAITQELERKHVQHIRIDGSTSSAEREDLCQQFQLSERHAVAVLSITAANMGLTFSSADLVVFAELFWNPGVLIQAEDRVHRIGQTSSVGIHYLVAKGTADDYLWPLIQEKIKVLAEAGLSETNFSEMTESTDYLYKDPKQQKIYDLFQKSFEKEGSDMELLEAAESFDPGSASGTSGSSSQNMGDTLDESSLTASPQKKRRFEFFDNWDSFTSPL
UniProt Q9NZD8: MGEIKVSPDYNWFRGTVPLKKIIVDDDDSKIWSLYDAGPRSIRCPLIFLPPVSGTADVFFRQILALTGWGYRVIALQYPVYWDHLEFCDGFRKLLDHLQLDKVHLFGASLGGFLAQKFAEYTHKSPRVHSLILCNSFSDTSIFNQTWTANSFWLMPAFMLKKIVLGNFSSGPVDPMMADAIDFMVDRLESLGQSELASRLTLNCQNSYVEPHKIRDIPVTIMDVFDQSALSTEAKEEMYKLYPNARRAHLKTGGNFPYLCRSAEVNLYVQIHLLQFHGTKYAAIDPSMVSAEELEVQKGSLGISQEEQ
UniProt Q9NZQ0: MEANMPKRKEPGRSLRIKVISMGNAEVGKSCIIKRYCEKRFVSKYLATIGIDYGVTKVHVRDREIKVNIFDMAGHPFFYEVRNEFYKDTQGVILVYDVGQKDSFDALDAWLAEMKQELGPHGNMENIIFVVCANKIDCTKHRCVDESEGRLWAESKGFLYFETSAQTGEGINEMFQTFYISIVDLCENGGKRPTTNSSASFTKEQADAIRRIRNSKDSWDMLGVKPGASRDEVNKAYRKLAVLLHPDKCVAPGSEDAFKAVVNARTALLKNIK
UniProt Q9UBM7: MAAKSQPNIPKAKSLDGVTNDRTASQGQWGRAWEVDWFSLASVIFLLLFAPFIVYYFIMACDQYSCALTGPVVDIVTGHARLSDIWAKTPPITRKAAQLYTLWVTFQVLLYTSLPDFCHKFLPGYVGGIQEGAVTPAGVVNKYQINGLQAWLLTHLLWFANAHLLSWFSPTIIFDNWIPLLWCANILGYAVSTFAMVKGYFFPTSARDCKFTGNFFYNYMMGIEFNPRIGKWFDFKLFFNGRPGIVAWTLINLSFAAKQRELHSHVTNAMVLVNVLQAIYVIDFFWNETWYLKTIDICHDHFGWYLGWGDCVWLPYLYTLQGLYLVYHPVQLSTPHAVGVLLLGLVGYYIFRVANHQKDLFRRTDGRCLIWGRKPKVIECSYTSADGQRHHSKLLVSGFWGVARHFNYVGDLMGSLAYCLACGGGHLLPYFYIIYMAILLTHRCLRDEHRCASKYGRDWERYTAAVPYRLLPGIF
UniProt Q9NY65, whole entry: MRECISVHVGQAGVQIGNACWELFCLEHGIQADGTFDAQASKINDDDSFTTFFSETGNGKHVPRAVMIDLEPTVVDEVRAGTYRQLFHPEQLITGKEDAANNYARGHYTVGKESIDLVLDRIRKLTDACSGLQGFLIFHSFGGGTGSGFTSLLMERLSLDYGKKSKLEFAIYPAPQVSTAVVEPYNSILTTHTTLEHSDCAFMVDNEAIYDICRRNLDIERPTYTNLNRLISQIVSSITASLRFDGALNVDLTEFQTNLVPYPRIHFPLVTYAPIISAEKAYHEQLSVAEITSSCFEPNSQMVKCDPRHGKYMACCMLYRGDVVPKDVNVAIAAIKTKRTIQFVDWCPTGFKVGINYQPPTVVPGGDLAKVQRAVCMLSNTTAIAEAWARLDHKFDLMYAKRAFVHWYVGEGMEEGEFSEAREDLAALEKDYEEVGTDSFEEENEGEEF
UniProt Q9NYP9: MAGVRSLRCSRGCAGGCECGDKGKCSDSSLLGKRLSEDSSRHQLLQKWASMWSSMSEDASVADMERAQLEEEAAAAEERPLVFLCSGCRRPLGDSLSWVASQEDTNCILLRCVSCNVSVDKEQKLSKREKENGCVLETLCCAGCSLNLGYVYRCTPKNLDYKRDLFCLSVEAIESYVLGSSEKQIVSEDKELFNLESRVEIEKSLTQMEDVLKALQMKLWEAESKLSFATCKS
UniProt Q9P2J5: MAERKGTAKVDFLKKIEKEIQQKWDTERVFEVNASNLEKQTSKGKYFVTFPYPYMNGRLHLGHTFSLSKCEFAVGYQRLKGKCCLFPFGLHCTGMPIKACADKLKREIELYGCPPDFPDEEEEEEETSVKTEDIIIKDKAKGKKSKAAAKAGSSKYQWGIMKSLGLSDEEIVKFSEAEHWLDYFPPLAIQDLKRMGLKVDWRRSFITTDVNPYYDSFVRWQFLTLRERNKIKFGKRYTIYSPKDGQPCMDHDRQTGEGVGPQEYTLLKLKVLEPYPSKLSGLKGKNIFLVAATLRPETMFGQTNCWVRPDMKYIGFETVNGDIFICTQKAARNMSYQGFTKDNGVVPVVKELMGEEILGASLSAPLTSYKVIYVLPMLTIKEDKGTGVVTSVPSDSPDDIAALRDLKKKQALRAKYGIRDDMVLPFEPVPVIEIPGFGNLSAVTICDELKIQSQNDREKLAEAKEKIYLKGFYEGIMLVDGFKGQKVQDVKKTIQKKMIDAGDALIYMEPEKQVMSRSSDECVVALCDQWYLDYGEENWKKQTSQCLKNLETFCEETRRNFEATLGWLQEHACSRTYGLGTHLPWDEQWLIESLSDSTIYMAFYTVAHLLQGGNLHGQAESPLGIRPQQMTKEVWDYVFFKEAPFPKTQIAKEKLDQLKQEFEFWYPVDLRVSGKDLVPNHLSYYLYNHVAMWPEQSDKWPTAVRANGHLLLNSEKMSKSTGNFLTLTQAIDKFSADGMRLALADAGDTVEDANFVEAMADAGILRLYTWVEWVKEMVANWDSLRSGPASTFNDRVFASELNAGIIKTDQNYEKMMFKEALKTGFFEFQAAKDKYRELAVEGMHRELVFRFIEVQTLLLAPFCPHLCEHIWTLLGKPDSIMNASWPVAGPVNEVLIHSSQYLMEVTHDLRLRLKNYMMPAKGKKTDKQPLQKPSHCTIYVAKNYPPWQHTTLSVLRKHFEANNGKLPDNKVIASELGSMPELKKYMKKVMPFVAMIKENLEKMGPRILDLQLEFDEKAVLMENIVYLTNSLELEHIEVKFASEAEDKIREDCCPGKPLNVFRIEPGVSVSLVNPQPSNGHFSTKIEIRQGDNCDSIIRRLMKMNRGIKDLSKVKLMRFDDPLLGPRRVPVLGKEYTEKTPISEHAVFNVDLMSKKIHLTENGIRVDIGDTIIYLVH
UniProt Q9P287, whole entry: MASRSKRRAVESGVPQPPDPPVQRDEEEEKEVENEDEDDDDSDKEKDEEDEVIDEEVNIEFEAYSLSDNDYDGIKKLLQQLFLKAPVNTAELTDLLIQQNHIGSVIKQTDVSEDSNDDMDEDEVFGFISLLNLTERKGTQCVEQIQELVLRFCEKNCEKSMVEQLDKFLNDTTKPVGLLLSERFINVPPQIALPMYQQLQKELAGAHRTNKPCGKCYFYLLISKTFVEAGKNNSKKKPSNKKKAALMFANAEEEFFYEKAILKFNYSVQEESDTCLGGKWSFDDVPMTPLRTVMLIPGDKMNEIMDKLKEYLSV

The other results are listed elsewhere or left out. Most values lie at the level of the controls, where differences are scatter.

Compound in the assay: Cc1nc(Nc2ncc(C(=O)Nc3c(C)cccc3Cl)s2)cc(N2CCN(CCO)CC2)n1 [dasatinib]
Nature of the assay: log2 fold change of tryptic peptide abundance, ligand vs vehicle (limited proteolysis) (log2 ratio); higher = more trypsin-susceptible (destabilized). Particulars: ligand concentration: 5 uM; sample: K562 cleared lysate.
Regarding “SMARCAL1 (peptide sequence: QGPSQNFPR, peptide start residue: 51) (UniProt Q9NZC9)”, the log2 fold change came out at 0.429. As to “SPG21 (peptide sequence: LTLNCQNSYVEPHKIR, peptide start residue: 200) (UniProt Q9NZD8)”, the log2 fold change was 0.747. The same measure for “UniProt Q9NZQ0 (peptide sequence: MEANMPKR, peptide start residue: 1)”: 1.62; for “DHCR7 (peptide sequence: TASQGQWGR, peptide start residue: 23) (UniProt Q9UBM7)”: 0.155. Turning to “TUBA8 (peptide sequence: QLFHPEQLITGKEDAANNYAR, peptide start residue: 85) (UniProt Q9NY65)”, the log2 fold change came out at 0.0857. As for “UniProt Q9NYP9 (peptide sequence: GCAGGCECGDKGK, peptide start residue: 12)”, the figure is -0.45. Consider “LARS (peptide sequence: GKYFVTFPYPYMNGR, peptide start residue: 44) (UniProt Q9P2J5)”, for which the log2 fold change amounted to 0.104. The same measure for “BCCIP (peptide sequence: KGTQCVEQIQELVLR, peptide start residue: 137) (UniProt Q9P287)”: -0.102. As to “NCKIPSD (peptide sequence: RKDDAQQR, peptide start residue: 392) (UniProt Q9NZQ3)”, the log2 fold change is -0.571.
